Laboratory results reported in article PMC7057672.
These are yes or no findings as the source states them, for the method shown. In cells and extracts the contact can be indirect. Some results given as binding are weak or reduced against the parent protein; the word gives no strength.

Amino acid sequences for entries named in this document (tags omitted). A change or cut given only in a name is not applied to a line headed by its entry.
UniProt Q07133: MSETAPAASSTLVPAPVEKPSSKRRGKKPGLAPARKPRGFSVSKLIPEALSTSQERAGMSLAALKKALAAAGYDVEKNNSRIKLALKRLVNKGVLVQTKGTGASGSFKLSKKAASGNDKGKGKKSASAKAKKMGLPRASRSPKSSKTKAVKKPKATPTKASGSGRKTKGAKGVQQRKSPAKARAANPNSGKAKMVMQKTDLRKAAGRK
UniProt P83917: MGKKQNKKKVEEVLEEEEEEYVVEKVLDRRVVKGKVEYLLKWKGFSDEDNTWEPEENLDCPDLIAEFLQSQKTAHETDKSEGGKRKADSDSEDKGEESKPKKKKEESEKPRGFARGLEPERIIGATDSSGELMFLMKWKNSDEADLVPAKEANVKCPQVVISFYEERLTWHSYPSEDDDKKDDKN
UniProt P23198: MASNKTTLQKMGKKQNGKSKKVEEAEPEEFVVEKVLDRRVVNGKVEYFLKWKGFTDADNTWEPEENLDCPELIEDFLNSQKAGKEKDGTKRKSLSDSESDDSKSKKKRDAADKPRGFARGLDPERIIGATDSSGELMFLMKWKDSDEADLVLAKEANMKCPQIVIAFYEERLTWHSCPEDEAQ
UniProt P17156: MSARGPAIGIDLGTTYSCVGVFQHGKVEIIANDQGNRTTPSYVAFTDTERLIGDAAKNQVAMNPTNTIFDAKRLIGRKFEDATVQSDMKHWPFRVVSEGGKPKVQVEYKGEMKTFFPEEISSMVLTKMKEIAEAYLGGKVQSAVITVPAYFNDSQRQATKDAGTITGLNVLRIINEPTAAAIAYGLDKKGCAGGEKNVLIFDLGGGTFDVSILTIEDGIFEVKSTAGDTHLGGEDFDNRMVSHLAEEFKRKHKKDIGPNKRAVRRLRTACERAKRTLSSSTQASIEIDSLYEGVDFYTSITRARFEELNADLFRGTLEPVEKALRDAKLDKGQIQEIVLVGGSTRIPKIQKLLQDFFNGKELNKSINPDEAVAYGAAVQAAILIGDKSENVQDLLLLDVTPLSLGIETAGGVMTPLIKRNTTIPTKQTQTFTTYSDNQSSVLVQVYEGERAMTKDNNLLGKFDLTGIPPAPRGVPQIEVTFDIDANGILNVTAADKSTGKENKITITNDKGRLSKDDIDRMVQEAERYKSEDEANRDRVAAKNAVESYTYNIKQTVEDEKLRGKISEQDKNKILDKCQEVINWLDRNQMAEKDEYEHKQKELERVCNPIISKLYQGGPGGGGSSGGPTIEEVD
UniProt Q61937: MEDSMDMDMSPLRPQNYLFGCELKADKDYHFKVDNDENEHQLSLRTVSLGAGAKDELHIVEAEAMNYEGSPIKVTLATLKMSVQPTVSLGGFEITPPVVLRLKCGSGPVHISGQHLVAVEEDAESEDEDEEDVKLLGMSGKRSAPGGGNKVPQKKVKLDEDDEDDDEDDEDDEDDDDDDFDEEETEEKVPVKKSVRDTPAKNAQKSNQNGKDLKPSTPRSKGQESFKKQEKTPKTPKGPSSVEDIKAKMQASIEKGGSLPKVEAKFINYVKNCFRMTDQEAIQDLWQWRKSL
UniProt Q9JMB7: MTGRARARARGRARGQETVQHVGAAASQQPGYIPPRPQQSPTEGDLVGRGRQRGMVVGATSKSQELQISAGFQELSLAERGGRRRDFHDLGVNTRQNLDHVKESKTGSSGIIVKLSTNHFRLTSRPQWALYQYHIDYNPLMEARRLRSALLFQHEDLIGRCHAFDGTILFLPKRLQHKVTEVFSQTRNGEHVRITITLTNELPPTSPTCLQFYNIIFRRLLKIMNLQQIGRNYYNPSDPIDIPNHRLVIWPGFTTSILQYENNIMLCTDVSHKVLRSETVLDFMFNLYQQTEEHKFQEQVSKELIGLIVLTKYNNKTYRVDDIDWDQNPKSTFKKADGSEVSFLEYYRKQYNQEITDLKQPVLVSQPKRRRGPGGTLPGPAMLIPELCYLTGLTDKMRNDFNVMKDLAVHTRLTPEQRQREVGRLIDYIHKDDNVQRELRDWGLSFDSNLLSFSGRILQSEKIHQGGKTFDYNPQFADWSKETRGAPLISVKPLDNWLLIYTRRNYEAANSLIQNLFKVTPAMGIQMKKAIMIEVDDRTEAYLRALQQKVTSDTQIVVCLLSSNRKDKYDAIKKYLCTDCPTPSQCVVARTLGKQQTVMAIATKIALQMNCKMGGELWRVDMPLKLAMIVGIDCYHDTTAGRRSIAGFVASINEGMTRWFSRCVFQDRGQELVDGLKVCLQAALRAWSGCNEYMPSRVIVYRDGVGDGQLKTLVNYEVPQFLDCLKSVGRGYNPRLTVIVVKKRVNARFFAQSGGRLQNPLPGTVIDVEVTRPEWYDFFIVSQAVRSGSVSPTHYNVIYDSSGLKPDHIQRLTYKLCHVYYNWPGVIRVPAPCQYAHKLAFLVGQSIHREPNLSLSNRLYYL

target: linker histone variant H1t (mouse (endogenous in P20 mouse testicular cells)) (UniProt Q07133); assay: co-IP; ChIP-western / oligonucleosome IP: formaldehyde-crosslinked, sonicated chromatin of P20 mouse testicular cells; IP with anti-H1t, anti-H3K9me3, anti-H4K20me3 or anti-H3K4me3; non-specific IgG isotype control; eluate probed by western blotting

binding, binds:
HP1β (from UniProt P83917 1-185)
HP1γ (from UniProt P23198 1-183)
Hspa2 (from UniProt P17156 1-633)
Npm1 (from UniProt Q61937 1-292)
Piwil1 (from UniProt Q9JMB7 1-862)
